Drug screen on melanoma cell lines: cell count

Data from the primary screen of doi:10.1371/journal.pone.0140310, rounded.

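Human melanoma cell lines in 1,536-well plates were treated with two drugs together for 72 h, then fixed, stained and imaged. The read-out is cell count (nuclei) in % of the DMSO control; lower values mean stronger growth inhibition or killing. Every drug was used at one fixed concentration, the lower of two screened (a fifth of the higher). The file gives one value for each pair and line, without errors, so small differences may be noise.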
Only some of the drugs and lines screened are listed, without regard to their results.

All values are for the listed drug together with T0901317 (1.4 µM): O=S(=O)(c1ccccc1)N(CC(F)(F)F)c1ccc(C(O)(C(F)(F)F)C(F)(F)F)cc1

Drug key:
ZM336372 (2 µM): Cc1ccc(NC(=O)c2cccc(N(C)C)c2)cc1NC(=O)c1ccc(O)cc1
STA-4783 (0.006 µM): CN(NC(=O)CC(=O)NN(C)C(=S)c1ccccc1)C(=S)c1ccccc1
CHIR-265 (0.08 µM): Cn1c(Nc2ccc(C(F)(F)F)cc2)nc2cc(Oc3ccnc(-c4ncc(C(F)(F)F)[nH]4)c3)ccc21
cediranib (0.4 µM): COc1cc2c(Oc3ccc4[nH]c(C)cc4c3F)ncnc2cc1OCCCN1CCCC1
tipifarnib (0.01 µM): Cn1cncc1[C@@](N)(c1ccc(Cl)cc1)c1ccc2c(c1)c(-c1cccc(Cl)c1)cc(=O)n2C
temozolomide (2 µM): Cn1nnc2c(C(N)=O)ncn2c1=O
pioglitazone (2 µM): CCc1ccc(CCOc2ccc(CC3SC(=O)NC3=O)cc2)nc1 (stereo not shown)
LFM-A13 (2 µM): C/C(O)=C(\C#N)C(=O)Nc1cc(Br)ccc1Br

For temozolomide the values were COLO 800: 86.8; A2058: 75.7; COLO 792: 93.4; G-361: 82.9; A375: 86.3; COLO 829: 86.5; IST-MEL1: 104; LB2518-MEL: 117; MEL-HO: 120; IPC-298: 86.8; A101D: 121; C32: 99.4; LOX IMVI: 93.1; 501mel: 91.3.
For STA-4783 the values were COLO 800: 25.6; A2058: 64.8; COLO 792: 85.5; G-361: 71.8; A375: 15.3; COLO 829: 54.9; IST-MEL1: 72.8; LB2518-MEL: 68.7; MEL-HO: 106; IPC-298: 84.4; A101D: 72.7; C32: 63.6; LOX IMVI: 49.4; 501mel: 28.6.
For pioglitazone the values were COLO 800: 113; A2058: 97.6; COLO 792: 105; G-361: 94.0; A375: 71.6; COLO 829: 97.2; IST-MEL1: 99.6; LB2518-MEL: 99.9; MEL-HO: 92.8; IPC-298: 91.8; A101D: 91.1; C32: 99.2; LOX IMVI: 127; 501mel: 106.
For cediranib the values were COLO 800: 124; A2058: 96.2; COLO 792: 102; G-361: 93.3; A375: 90.0; COLO 829: 110; IST-MEL1: 99.1; LB2518-MEL: 101; MEL-HO: 97.2; IPC-298: 91.9; A101D: 117; C32: 80.4; LOX IMVI: 72.3; 501mel: 83.3.
For CHIR-265 the values were COLO 800: 70.8; A2058: 79.6; COLO 792: 36.8; G-361: 56.5; A375: 61.3; COLO 829: 61.3; IST-MEL1: 96.0; LB2518-MEL: 42.1; MEL-HO: 83.2; IPC-298: 53.0; A101D: 69.0; C32: 70.3; LOX IMVI: 94.6; 501mel: 44.6.
For tipifarnib the values were COLO 800: 69.2; A2058: 97.9; COLO 792: 105; G-361: 84.5; A375: 75.5; COLO 829: 91.3; IST-MEL1: 89.5; LB2518-MEL: 84.7; MEL-HO: 86.4; IPC-298: 89.3; A101D: 94.8; C32: 89.6; LOX IMVI: 101; 501mel: 78.2.
For ZM336372 the values were COLO 800: 110; A2058: 92.5; COLO 792: 114; G-361: 83.7; A375: 97.4; COLO 829: 78.1; IST-MEL1: 92.9; LB2518-MEL: 95.1; MEL-HO: 83.6; IPC-298: 73.5; A101D: 94.5; C32: 102; LOX IMVI: 65.8; 501mel: 76.4.
For LFM-A13 the values were COLO 800: 70.2; A2058: 97.8; COLO 792: 91.6; G-361: 79.6; A375: 82.3; COLO 829: 71.5; IST-MEL1: 102; LB2518-MEL: 101; MEL-HO: 90.2; IPC-298: 92.7; A101D: 91.8; C32: 84.4; LOX IMVI: 135; 501mel: 107.